{"source": "PubChem BioAssay AID328", "about": "(DTP/NCI, 2004)", "system": "BDF1 mice, P388 leukemia ip, median survival T/C", "experiment": "NCI In Vivo Anticancer Drug Screen. Data for tumor model P388 Leukemia (intraperitoneal) in B6D2F1 (BDF1) mice", "settings": "T/C endpoint: median survival time, higher T/C = longer survival", "in_short": "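Vehicle-dosed animals serve as the reference; survival of compound-dosed, tumour-implanted mice is divided by it.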", "key": {"[1]": {"settings": "dose: 100.0 mg/kg/injection, schedule: Q01DX009 (ip), vehicle: saline with Tween-80"}, "[2]": {"settings": "dose: 400.0 mg/kg/injection, schedule: Q01DX009 (ip), vehicle: saline with Tween-80"}, "[3]": {"settings": "dose: 400.0 mg/kg/injection, schedule: Q01DX009 (ip), vehicle: Klucel (hydroxypropylcellulose) (HPC)"}, "[4]": {"settings": "dose: 200.0 mg/kg/injection, schedule: Q01DX009 (ip), vehicle: saline with Tween-80"}, "[5]": {"settings": "dose: 200.0 mg/kg/injection, schedule: Q04DX003 (ip), vehicle: Klucel (hydroxypropylcellulose) (HPC)"}, "[6]": {"settings": "dose: 50.0 mg/kg/injection, schedule: Q01DX009 (ip), vehicle: saline"}, "[7]": {"settings": "dose: 200.0 mg/kg/injection, schedule: Q01DX009 (ip), vehicle: Klucel (hydroxypropylcellulose) (HPC)"}, "[8]": {"settings": "dose: 400.0 mg/kg/injection, schedule: Q04DX003 (ip), vehicle: Klucel (hydroxypropylcellulose) (HPC)"}, "[9]": {"settings": "dose: 100.0 mg/kg/injection, schedule: Q01DX009 (ip), vehicle: Klucel (hydroxypropylcellulose) (HPC)"}, "[10]": {"settings": "dose: 400.0 mg/kg/injection, schedule: Q01DX009 (ip), vehicle: saline"}}, "note": "The list does not hold the whole screen: it gathers tests that were run many times, whatever their T/C, doses with no T/C, and many T/C values between a quarter and a half above the control. Other doses and runs of a compound stand elsewhere. T/C gives the treated animals as a percentage of the vehicle group. Some doses have a count of surviving animals in place of a T/C: the source files T/C as zero there, which appears to mark a toxic dose or a test without result, not a measured value. Some doses without a T/C left all or most animals alive at the check, yet need not have been tolerated: the source hardly ever lists a survival T/C far under the control, and the zero likely stands for such cases as well. Survivors were counted at the toxicity check, usually on the fifth day, unless a day is given; later deaths do not show. Schedule codes are those of the source, taken here to give the interval after Q, in days (D) or hours (H), and the number of doses after X. Some doses were run more than once; the values are given in rising order. Where survival is the endpoint, this PubChem deposit counts one and a half times the control or more as active, and values a quarter to a half above the control carry no call in these data; other NCI protocols may use other cut-offs. Some T/C values are followed by the survivors on the day toxicity was checked, most often the fifth; without a count, all were alive then."}
{"compound": "C[C@]12CC[C@H](OC(=O)Cc3ccc(N(CCCl)CCCl)cc3)CC1=CC[C@@H]1[C@@H]2CC[C@]2(C)C(=O)CC[C@@H]12", "values": [{"measurement": "T/C", "setting": "[1]", "result": "125 % of control"}, {"measurement": "T/C", "setting": "dose: 175.0 mg/kg/injection, schedule: Q04DX003 (ip), vehicle: saline with Tween-80", "result": "131 % of control"}, {"measurement": "T/C", "setting": "dose: 264.0 mg/kg/injection, schedule: Q04DX003 (ip), vehicle: alcohol", "result": "140 % of control [5 of 6 alive]"}, {"measurement": "T/C", "setting": "[2]", "result": "125 % of control"}]}
{"compound": "NC(=S)N/N=C/c1ccccn1", "values": [{"measurement": "T/C", "setting": "dose: 0.5 mg/kg/injection, schedule: Q01DX010 (ip), vehicle: carboxymethylcellulose (CMC)", "result": "125 % of control"}, {"measurement": "T/C", "setting": "dose: 0.94 mg/kg/injection, schedule: Q01DX010 (ip), vehicle: saline", "result": "130 % of control"}, {"measurement": "T/C", "setting": "dose: 1.88 mg/kg/injection, schedule: Q01DX010 (ip), vehicle: saline", "result": "140 % of control"}, {"measurement": "T/C", "setting": "dose: 4.0 mg/kg/injection, schedule: Q01DX010 (ip), vehicle: carboxymethylcellulose (CMC)", "result": "125 % of control"}, {"measurement": "T/C", "setting": "dose: 7.5 mg/kg/injection, schedule: Q01DX010 (ip), vehicle: saline", "result": "129 % of control"}, {"measurement": "T/C", "setting": "dose: 15.0 mg/kg/injection, schedule: Q01DX010 (ip), vehicle: saline", "result": "133 % of control"}, {"measurement": "survivor count", "setting": "dose: 16.0 mg/kg/injection, schedule: Q01DX010 (ip), vehicle: carboxymethylcellulose (CMC)", "result": "3 of 6"}]}
{"compound": "CCOC(=O)C1NC(=S)NCC1=O", "note": "(stereo not given)", "values": [{"measurement": "survivor count", "setting": "[3]", "result": "1 of 3"}]}
{"compound": "CCOC(=O)c1ccc(NC(=O)CCl)cc1", "values": [{"measurement": "survivor count", "setting": "dose: 50.0 mg/kg/injection, schedule: Q01DX010 (ip), vehicle: saline", "result": "6 of 6"}, {"measurement": "survivor count", "setting": "dose: 100.0 mg/kg/injection, schedule: Q01DX010 (ip), vehicle: saline", "result": "6 of 6"}, {"measurement": "survivor count", "setting": "dose: 200.0 mg/kg/injection, schedule: Q01DX010 (ip), vehicle: saline", "result": "6 of 6"}, {"measurement": "survivor count", "setting": "dose: 400.0 mg/kg/injection, schedule: Q01DX010 (ip), vehicle: saline", "result": "0 of 6"}]}
{"compound": "CCN1CC[N+](C)(CC)Cc2ccccc21", "note": "(stereo not given)", "values": [{"measurement": "survivor count", "setting": "dose: 50.0 mg/kg/injection, schedule: Q04DX003 (ip), vehicle: saline with Tween-80", "result": "6 of 6"}]}
{"compound": "Fc1ccc(NC(=S)SCc2ccc3c(c2)OCO3)cc1F", "values": [{"measurement": "T/C", "setting": "dose: 50.0 mg/kg/injection, schedule: Q01DX009 (ip), vehicle: saline with Tween-80", "result": "126 % of control"}, {"measurement": "T/C", "setting": "[1]", "result": "135 % of control"}, {"measurement": "T/C", "setting": "dose: 200.0 mg/kg/injection, schedule: Q01DX009 (ip), vehicle: saline + alcohol", "result": "125 % of control"}, {"measurement": "survivor count", "setting": "[4]", "result": "0 of 6"}, {"measurement": "survivor count", "setting": "[2]", "result": "0 of 6 and 2 of 6"}]}
{"compound": "NNCCC(=O)O", "values": [{"measurement": "T/C", "setting": "dose: 264.0 mg/kg/injection, schedule: Q04DX003 (ip), vehicle: saline", "result": "133 % of control"}, {"measurement": "T/C", "setting": "dose: 400.0 mg/kg/injection, schedule: Q04DX003 (ip), vehicle: saline", "result": "125 % of control"}]}
{"compound": "O=NN(CCCl)C(=O)Nc1ccc2c3c(cccc13)-c1ccccc1-2", "values": [{"measurement": "T/C", "setting": "dose: 25.0 mg/kg/injection, schedule: Q01DX009 (ip), vehicle: Klucel (hydroxypropylcellulose) (HPC)", "result": "142 % of control"}]}
{"compound": "NC(N)=Nc1ccc(C(=O)Oc2ccc(OC(=O)c3cccc(N=C(N)N)c3)cc2)cc1", "values": [{"measurement": "survivor count", "setting": "dose: 100.0 mg/kg/injection, schedule: Q04DX003 (ip), vehicle: water", "result": "6 of 6"}, {"measurement": "survivor count", "setting": "dose: 200.0 mg/kg/injection, schedule: Q04DX003 (ip), vehicle: water", "result": "6 of 6"}, {"measurement": "survivor count", "setting": "dose: 400.0 mg/kg/injection, schedule: Q04DX003 (ip), vehicle: water", "result": "5 of 6"}]}
{"compound": "COc1cccc2c1C(=O)c1c(O)c3c(c(O)c1C2=O)C[C@@](O)(C(C)=O)C[C@@H]3OC(=O)CCN", "values": [{"measurement": "T/C", "setting": "dose: 3.12 mg/kg/injection, schedule: Q01DX009 (ip), vehicle: water", "result": "125 % of control"}, {"measurement": "T/C", "setting": "dose: 6.25 mg/kg/injection, schedule: Q01DX009 (ip), vehicle: water", "result": "127 % of control"}, {"measurement": "T/C", "setting": "dose: 25.0 mg/kg/injection, schedule: Q01DX009 (ip), vehicle: water", "result": "133 % of control [5 of 6 alive]"}]}
{"compound": "O=C1C(Br)=CC(=C2C=C(Br)C(=O)C(Br)=C2)C=C1Br", "values": [{"measurement": "survivor count", "setting": "[5]", "result": "3 of 6"}]}
{"compound": "C=C(C)CNc1ccccc1", "values": [{"measurement": "survivor count", "setting": "[4]", "result": "6 of 6"}, {"measurement": "survivor count", "setting": "[2]", "result": "0 of 6"}]}
{"compound": "COc1cc(C(=O)N2CC2)cc(OC)c1OC", "values": [{"measurement": "survivor count", "setting": "dose: 100.0 mg/kg/injection, schedule: Q01DX009 (ip), vehicle: water", "result": "1 of 6"}]}
{"compound": "NS(=O)(=O)O", "values": [{"measurement": "survivor count", "setting": "[6]", "result": "6 of 6"}]}
{"compound": "COc1cc(OC)c(/C=C/c2c3ccccc3cc[n+]2C)c(OC)c1", "values": [{"measurement": "survivor count", "setting": "[1]", "result": "0 of 6"}, {"measurement": "survivor count", "setting": "[4]", "result": "0 of 6"}, {"measurement": "survivor count", "setting": "[2]", "result": "0 of 6"}]}
{"compound": "CCOC(=O)c1c(NC(=O)CCl)ssc1=S", "values": [{"measurement": "survivor count", "setting": "[1]", "result": "4 of 6"}, {"measurement": "survivor count", "setting": "dose: 100.0 mg/kg/injection, schedule: Q04DX003 (ip), vehicle: saline with Tween-80", "result": "6 of 6"}, {"measurement": "survivor count", "setting": "[4]", "result": "1 of 6"}, {"measurement": "survivor count", "setting": "[2]", "result": "0 of 6"}]}
{"compound": "NNC(=O)c1ccc(Br)cc1", "values": [{"measurement": "survivor count", "setting": "[7]", "result": "6 of 6"}, {"measurement": "survivor count", "setting": "[8]", "result": "2 of 6"}]}
{"compound": "CC(=O)c1c(C)c([N+](=O)[O-])c(C(C)(C)C)c([N+](=O)[O-])c1C", "values": [{"measurement": "survivor count", "setting": "dose: 50.0 mg/kg/injection, schedule: Q01DX009 (ip), vehicle: Klucel (hydroxypropylcellulose) (HPC)", "result": "3 of 3"}, {"measurement": "T/C", "setting": "[9]", "result": "133 % of control"}, {"measurement": "survivor count", "setting": "[9]", "result": "3 of 3"}, {"measurement": "T/C", "setting": "[7]", "result": "133 % of control"}, {"measurement": "survivor count", "setting": "[3]", "result": "2 of 3"}]}
{"compound": "O=C(O)c1cc(C(Cl)(Cl)Cl)ccc1C(Cl)(Cl)Cl", "values": [{"measurement": "T/C", "setting": "dose: 200.0 mg/kg/injection, schedule: Q04DX003 (ip), vehicle: saline sonified", "result": "127 % of control [5 of 6 alive]"}]}
{"compound": "CCN1C(=O)Nc2ccc(Cl)cc2C1(O)c1ccccc1", "note": "(stereo not given)", "values": [{"measurement": "survivor count", "setting": "[1]", "result": "6 of 6"}]}
{"compound": "O=C1c2ccccc2-c2ncccc21", "values": [{"measurement": "survivor count", "setting": "[8]", "result": "4 of 6"}]}
{"compound": "COc1ccc(CC2=NCCc3cc(OC)c(OC)cc32)cc1OC", "values": [{"measurement": "T/C", "setting": "[6]", "result": "146 % of control"}]}
{"compound": "CCOC(=O)N1c2ccccc2C=CC1/C(N)=N/O", "note": "(stereo not given)", "values": [{"measurement": "survivor count", "setting": "[5]", "result": "6 of 6"}]}
{"compound": "CS(=O)(=O)c1nc(N)nc2nc[nH]c12", "values": [{"measurement": "survivor count", "setting": "[10]", "result": "1 of 6"}]}
{"compound": "Oc1cc(N2CC2)c(O)cc1N1CC1", "values": [{"measurement": "T/C", "setting": "dose: 0.05 mg/kg/injection, schedule: Q01DX009 (ip), vehicle: saline", "result": "133 % of control"}, {"measurement": "T/C", "setting": "dose: 0.2 mg/kg/injection, schedule: Q01DX009 (ip), vehicle: saline", "result": "145 % of control"}, {"measurement": "T/C", "setting": "dose: 0.31 mg/kg/injection, schedule: Q04DX003 (ip), vehicle: saline", "result": "145 % of control"}, {"measurement": "survivor count", "setting": "dose: 5.0 mg/kg/injection, schedule: Q04DX003 (ip), vehicle: saline", "result": "6 of 6"}, {"measurement": "survivor count", "setting": "dose: 10.0 mg/kg/injection, schedule: Q04DX003 (ip), vehicle: saline", "result": "5 of 6"}, {"measurement": "survivor count", "setting": "dose: 1400.0 micrograms/kg/injection, schedule: Q01DX009 (ip), vehicle: saline", "result": "5 of 6"}, {"measurement": "survivor count", "setting": "dose: 2200.0 micrograms/kg/injection, schedule: Q01DX009 (ip), vehicle: saline", "result": "6 of 6"}, {"measurement": "survivor count", "setting": "dose: 3300.0 micrograms/kg/injection, schedule: Q01DX009 (ip), vehicle: saline", "result": "6 of 6"}]}
{"compound": "COc1cc(N2CCOCC2)ccc1[N+](=O)[O-]", "values": [{"measurement": "survivor count", "setting": "[10]", "result": "0 of 6"}]}
